The whole screen tested about 52,000 sequences, of which about 210 (0.4%) were called active.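 The calls were made as follows: active = gene whose silencing raises cell survival under the drug, median off-target-corrected z-score across its silencing RNAs 2 or more; inactive = the rest.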 Some of the results follow.

The test in a line: Resistance to Poly (ADP-Ribose) Polymerase inhibitor: Gene Identification via Genome-wide siRNA Screen. The note with it: mouse BRCA2 R2336H ES cells, olaparib, CellTiter-Glo viability; active compounds read high. An outline of the steps:
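Mouse BRCA2 R2336H ES cells were reverse-transfected with siRNA (20 nM final), treated at 48 h with 500 nM olaparib, and read by CellTiter-Glo after 72 h. Scores: MAD-based z per siRNA, median per gene, seed off-target correction.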
(In general: Cellular ATP, detected with luciferase, serves as a proxy for viable cell number.)
CCUAGCACUAGCCUCCUUATT against Tbx2: the z-score is inactive: 0.0769.

In the case of “GGCUUUUGUUUCUUAUGUCTT against E430029F06”, the z-score was inactive: -0.0477.

With GGAAAUCGAGCAUGUCUUCTT against Stk32c, the z-score is inactive: -1.98.

For the sequence GCUGAUAAACCACUUGUGATT against Olfr1287, the z-score was inactive: 0.139.

For CGGGUGAGUGGAAAAACCATT against Gm574, the z-score was inactive: 0.588.

For GGAGAUGAUGCUCUUCCUGTT against Cflar, the z-score is inactive: -0.436.

Turning to GGCCCUUGUAAGAGUCCUUTT against Olfr381, the z-score was inactive: 0.252.

Turning to “AUGUGACUGGCUUUACAUUTT against 4933405I11Rik”, the z-score is inactive: -0.855.

Consider GGAACUGUGAGACUUUUAGTT against Rabgap1, for which the z-score was inactive: 1.94.

Consider “CGUAGGUUCCUCUUACAUGTT against 4930562C03Rik”, for which the z-score was inactive: -0.867.

On to CCACUCCUGUUGAUAAAAATT against Pex7, for which the z-score is inactive: 0.307.

CCAGAUAAGCCUCAUCAAUTT against Scn5a: the z-score is inactive: 1.65.

For GGGAGAAUUACCAAGAUCUTT against Elac1, the z-score is inactive: 2.5.

Take “GCCACUUGUUAAUAAAGUGTT against 9130011J15Rik”: the z-score was inactive: -0.513.

For the sequence GGCCAUAUUUGUGACUGUGTT against Hao1, the z-score is inactive: 2.26.

In the case of GACAUACAAUCUCCUACAUTT against Olfr478, the z-score was inactive: -0.58.

Take GGAAAUCUACAUCAUGGCUTT against AI661311: the z-score was inactive: 0.949.

With GGCUUUCAUGUGCCGUUUUTT against Gstm5, the z-score was inactive: 0.483.

Take GGAUGAUGCUUCUUGAAAATT against Sfrp4: the z-score is inactive: -0.175.

Take GGAAAUGACAGGAAAGAUUTT against Zfp35: the z-score was inactive: 0.364.

Turning to “GGGAGCCAAAGUGAGAUUUTT against 4933429I20Rik”, the z-score was inactive: -0.144.

Turning to GGGACUGGUCGUUUAGGAUTT against Tmie, the z-score was inactive: 1.75.

As to GCACUAAGUGGUCCAAUUATT against Gm1382, the z-score is inactive: 0.169.

On to “GGCAGUUGUUAAAAUCUGCTT against 2210409M21Rik”, for which the z-score was inactive: -0.487.

Turning to GGCUAUAUCAAUGAAUUUGTT against Polr3b, the z-score was inactive: 0.129.

GGGUAUAGAAUGAUUAUGGTT against BC025446: the z-score was inactive: 0.195.

With GGUAAACACUACCCUAACATT against Cpeb3, the z-score is inactive: -0.00872.

Consider GGCCUCCAAGAUUGUAGGUTT against Prtn3, for which the z-score is inactive: 1.44.

On to GGAGCACCAAGAAUUUUUUTT against Bcl2l10, for which the z-score was inactive: 1.29.

Regarding GGGAAAGAAUGGUGUGGAATT against Dlx4, the z-score is inactive: -1.16.

On to GGACUUCAAGGAUGCCUACTT against B3galt5, for which the z-score was inactive: -1.53.

Take GCUUCCUCGGUCAAAUAAATT against Cetn1: the z-score was inactive: -0.259.

Turning to GGCUGGAGAAGUAAUGAUATT against Sp100, the z-score was inactive: 0.289.

GUGUAUGUUCACCAAGCUCTT against Klk16: the z-score is inactive: -3.03.

Consider GGGAAUGUGACUACUCCAUTT against Tln2, for which the z-score is inactive: 0.944.

Consider GGCAAUGAAGGAAACCAAATT against Mpp1, for which the z-score is inactive: -1.7.

Consider “GGCAGCAAACCUUUGCUAUTT against 2700050P07Rik”, for which the z-score was inactive: 0.39.

In the case of GGGCAUCCGGCUUUCAGAATT against Chchd3, the z-score was inactive: -0.661.

As for GCCAAAGCUUAAAAAGAAGTT against Gemin5, the z-score was inactive: 0.42.

Consider GGAUAUUAAAUUCUCAUCCTT against Pus1, for which the z-score is inactive: 1.14.

On to GGUUGUUCCUACAUGUCUUTT against Irf3, for which the z-score is inactive: -0.073.

Consider CCAACAAGUUGCAUGCCUUTT against Mbl1, for which the z-score was inactive: 0.153.

As for GGACAGAUGAAGCUGCAUUTT against S100a4, the z-score was inactive: -0.776.

As to “GGAGUCCUACGUCAAAGAATT against F630022B06Rik”, the z-score was inactive: 1.27.

On to GCGUGAACACCUGAGGAUUTT against Rchy1, for which the z-score was inactive: -0.252.

With CCUAAUUACUACCACUACATT against Csnk, the z-score was inactive: 1.02.

As to CCCUCAGAACCAUUGAGAATT against Max, the z-score is inactive: -1.95.

Turning to GCGGUCCACUCCUGUUUGATT against Ypel1, the z-score was inactive: -0.36.

In the case of “GGGUUCCUACGAAUUCUACTT against 9230105K17Rik”, the z-score was inactive: -0.307.

GGCACUCUCUCAGAAUUUGTT against Rtn4ip1: the z-score was inactive: 1.34.

As for GGCCCAUAGGUUUCAAAUATT against Ccl22, the z-score is inactive: -0.99.

As to CCGCUAAGUUGGUAGACUCTT against Grp, the z-score is inactive: 0.182.

As for “GCCAAAUUUUGGGAUGUAATT against 2810047L02Rik”, the z-score is inactive: -1.02.

For GGCCCUGUGCACUAAAGUGTT against Bax, the z-score was inactive: 0.388.

Turning to “GCCUAAAUUCACAUGGCAGTT against 2510005D08Rik”, the z-score was inactive: 0.93.

For CCAUUCCUACAGCAUGCGUTT against Slc27a1, the z-score was inactive: 0.369.

On to GGCCUGACUUUUUGUCUUATT against Klhl15, for which the z-score is inactive: -0.795.

On to “GGACGAUGGACCCUAAAAGTT against 4931409K22Rik”, for which the z-score was inactive: 0.515.

With “GACCUUGAAGAAGCCAAUCTT against C330016H24Rik”, the z-score is inactive: -0.452.

For the sequence GAGUUCCAGUUUAUCCCUUTT against Klra1, the z-score was inactive: 0.52.

Turning to GGGCAAAUGUUCUCAAAAATT against Dlst, the z-score is inactive: 0.745.

Take GCAGUUAUCCGUAUUUAAATT against Ctnnbl1: the z-score is inactive: 0.634.

For “GCCAAAUGGGAAAUGGAAGTT against 4732497O03Rik”, the z-score was inactive: 1.54.

In the case of GGUUCACAGUCCAAGCUUCTT against Sytl3, the z-score was inactive: -0.547.

Regarding GCAUAUCGUUCAAGUUUACTT against Sorcs1, the z-score is inactive: 1.05.

Consider GGGUAUUCUGUGUGUUACUTT against Hsd3b1, for which the z-score was inactive: 0.151.

As for GGGUGUUUACUAACUCUGGTT against Hdac3, the z-score was inactive: -1.68.

As for CCGUAAACGAAAUCAUAGUTT against Wdr20, the z-score was inactive: 0.401.

As for CGAUUUUCUACAGAAAUACTT against Smpd3, the z-score was inactive: 0.869.

As to GGGUUACUUAUUAUAUCGATT against Phr1, the z-score is inactive: 1.23.

Consider CCAAAAAUUGUGGCUUUUGTT against Alas2, for which the z-score is inactive: -0.555.

“CCGUAUUAUUGGAAGCGGCTT against 4933402O15Rik”: the z-score is inactive: 0.714.

For GCAUAUCGUUUUAUGGAUGTT against Olfr1043, the z-score is inactive: 1.1.

As for CGGCAACCGGCACUAUAAATT against Pnoc, the z-score is inactive: -0.00504.

On to GGAUGUCAAAGUCUUUAGUTT against Grb10, for which the z-score is inactive: 0.465.

GGAGAAGAUAGUCUGGGUCTT against Bcas3: the z-score was inactive: -0.231.

On to CCUCUCAGUGGUUGAAAUGTT against Wdr5, for which the z-score was inactive: -1.64.

As to “GCAAUUGCUUUGCAUUUACTT against 9630005B12Rik”, the z-score is inactive: 0.836.

As for CGAUGUCAAUGUACUAAUUTT against Rhov, the z-score is inactive: 0.359.

Consider “GGAGAUGGUUGGAUCAUUCTT against D10Ertd610e”, for which the z-score is inactive: 0.642.

GGAAUUAAGAUCACUCACUTT against Cel: the z-score is inactive: -1.

Regarding GGAACGCAAAGAUGACCGUTT against Rnf20, the z-score is inactive: -0.474.

For UACCCAUUGUCAAGUUGGATT against Grm4, the z-score was inactive: -1.77.

In the case of GCUUCACAUGAAGCAACCUTT against AA536717, the z-score was inactive: 0.198.

As for GCCGGCAGUAAAGAUUCAUTT against Cog2, the z-score is inactive: 1.17.

Turning to GCCUCCUAGAUGAUAUCAGTT against Socs7, the z-score was inactive: 2.27.

Turning to CGAGCCACACCAAUAGAAGTT against Csnk1g3, the z-score was inactive: -1.1.

For “GGAUCCACAGUCAUUCAGATT against 5730470L24Rik”, the z-score was inactive: 0.079.

GGGCUACUUAAUGAGUUACTT against Polg2: the z-score is inactive: 0.504.

As to GGAUGUGUUCUAUUCUAUATT against Oprl1, the z-score is inactive: 2.59.

On to GGAGAUGGAAGCUAUUUUCTT against Hoxb1, for which the z-score is inactive: 0.266.

As for “GGAAGUGCUCUGCUGUACATT against C230094A16Rik”, the z-score was inactive: -1.65.

In the case of GGAGCUUAUGUUCAAAAUATT against Nasp, the z-score is inactive: 2.32.

GGUUGUGACUACACUAUGGTT against Zfp456: the z-score is inactive: 0.801.

CCGUGGUAAUGUGAACUAUTT against Cln6: the z-score is inactive: 1.82.

Regarding CCUGUGAAUACUUUCACUCTT against Bok, the z-score is inactive: 1.25.

Regarding CCCUGCUAUCAGCAUCACATT against AW742319, the z-score was inactive: -1.14.

As for CGUUACACGUACUUCAAGGTT against Wnt3a, the z-score was inactive: 1.89.

In the case of CGGUGUGAUGCGGAUUUUUTT against Cacna2d2, the z-score is inactive: 0.753.

For the sequence GGUGACUUCAGAUGUGGCCTT against Bat8, the z-score was inactive: 0.364.

For CCAAGUCCCUUUGUGGUGUTT against Peo1, the z-score is inactive: 0.13.

Take GCUUGGUGGGUUUGUUGAUTT against MGC74379: the z-score is inactive: 1.21.

Take GCACCUGUGGAGUUCUCUATT against Trp73: the z-score was inactive: -0.0382.

Regarding “GCCCACAUCUGAUCUUAAATT against A130072J07”, the z-score is inactive: 0.0502.

Regarding GACUAUGUGGUCUACUCGUTT against Drd4, the z-score was inactive: 0.0128.

The record behind these values is PubChem BioAssay AID1347423 (Functional Genomics Laboratory (NCATS/FGL), 2020).
